Some of the results follow.

Sequences of proteins named here, by UniProt entry; tags and fusion partners are left off. A change or cut given only in a name is not applied to a line headed by its entry.
UniProt P11766: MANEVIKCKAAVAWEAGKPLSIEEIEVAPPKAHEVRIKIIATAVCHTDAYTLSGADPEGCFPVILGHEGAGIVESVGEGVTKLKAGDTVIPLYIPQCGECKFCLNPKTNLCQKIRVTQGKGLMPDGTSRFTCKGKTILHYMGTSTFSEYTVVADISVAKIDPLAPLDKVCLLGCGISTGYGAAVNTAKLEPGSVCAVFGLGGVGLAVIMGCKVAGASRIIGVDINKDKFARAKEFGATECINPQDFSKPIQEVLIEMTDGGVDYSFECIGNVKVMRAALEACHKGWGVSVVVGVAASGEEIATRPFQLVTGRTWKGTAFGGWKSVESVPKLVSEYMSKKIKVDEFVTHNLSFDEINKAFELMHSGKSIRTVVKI
UniProt P30520: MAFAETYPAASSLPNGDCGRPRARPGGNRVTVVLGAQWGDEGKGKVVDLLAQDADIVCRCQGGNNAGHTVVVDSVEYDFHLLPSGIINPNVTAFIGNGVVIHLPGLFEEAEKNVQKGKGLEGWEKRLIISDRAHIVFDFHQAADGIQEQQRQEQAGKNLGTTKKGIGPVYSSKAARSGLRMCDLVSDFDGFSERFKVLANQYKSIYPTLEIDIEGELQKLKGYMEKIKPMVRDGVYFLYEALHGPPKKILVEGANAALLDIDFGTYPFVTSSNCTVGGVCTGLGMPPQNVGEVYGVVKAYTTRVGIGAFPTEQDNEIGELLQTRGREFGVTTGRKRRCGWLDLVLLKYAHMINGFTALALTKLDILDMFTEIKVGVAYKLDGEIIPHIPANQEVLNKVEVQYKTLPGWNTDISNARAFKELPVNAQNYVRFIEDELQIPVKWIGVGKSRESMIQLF
UniProt Q9H6R3: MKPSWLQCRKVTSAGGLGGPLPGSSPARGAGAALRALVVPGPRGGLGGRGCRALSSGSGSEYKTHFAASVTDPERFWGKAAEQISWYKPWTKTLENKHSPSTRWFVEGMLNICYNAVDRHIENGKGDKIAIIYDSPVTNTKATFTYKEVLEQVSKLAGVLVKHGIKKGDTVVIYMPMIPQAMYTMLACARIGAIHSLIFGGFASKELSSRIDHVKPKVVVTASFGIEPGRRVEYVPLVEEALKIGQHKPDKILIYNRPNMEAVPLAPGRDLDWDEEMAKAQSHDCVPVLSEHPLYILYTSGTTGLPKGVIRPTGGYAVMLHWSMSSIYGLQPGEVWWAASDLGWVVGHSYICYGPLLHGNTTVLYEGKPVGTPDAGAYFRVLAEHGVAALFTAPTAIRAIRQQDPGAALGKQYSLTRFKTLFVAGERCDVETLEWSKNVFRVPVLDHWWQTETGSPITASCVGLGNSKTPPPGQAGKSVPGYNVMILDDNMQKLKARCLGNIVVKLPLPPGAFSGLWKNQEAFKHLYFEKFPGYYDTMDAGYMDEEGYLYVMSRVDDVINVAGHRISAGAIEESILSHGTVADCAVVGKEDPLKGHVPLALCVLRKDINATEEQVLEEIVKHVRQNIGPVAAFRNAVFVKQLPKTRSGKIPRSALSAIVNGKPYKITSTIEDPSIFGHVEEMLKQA
UniProt O96019, whole entry, looked up: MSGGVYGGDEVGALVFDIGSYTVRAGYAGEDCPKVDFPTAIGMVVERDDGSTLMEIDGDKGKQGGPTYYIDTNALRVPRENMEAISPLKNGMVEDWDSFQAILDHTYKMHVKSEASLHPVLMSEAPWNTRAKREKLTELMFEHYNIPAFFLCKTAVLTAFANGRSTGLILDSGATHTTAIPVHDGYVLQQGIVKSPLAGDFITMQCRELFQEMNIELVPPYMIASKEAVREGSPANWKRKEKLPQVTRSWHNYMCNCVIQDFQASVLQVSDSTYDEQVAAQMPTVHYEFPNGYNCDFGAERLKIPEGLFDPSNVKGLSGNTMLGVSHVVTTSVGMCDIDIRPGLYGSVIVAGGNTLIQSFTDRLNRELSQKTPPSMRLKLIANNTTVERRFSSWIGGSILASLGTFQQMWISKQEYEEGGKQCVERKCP
UniProt Q9NZ32, whole entry, looked up: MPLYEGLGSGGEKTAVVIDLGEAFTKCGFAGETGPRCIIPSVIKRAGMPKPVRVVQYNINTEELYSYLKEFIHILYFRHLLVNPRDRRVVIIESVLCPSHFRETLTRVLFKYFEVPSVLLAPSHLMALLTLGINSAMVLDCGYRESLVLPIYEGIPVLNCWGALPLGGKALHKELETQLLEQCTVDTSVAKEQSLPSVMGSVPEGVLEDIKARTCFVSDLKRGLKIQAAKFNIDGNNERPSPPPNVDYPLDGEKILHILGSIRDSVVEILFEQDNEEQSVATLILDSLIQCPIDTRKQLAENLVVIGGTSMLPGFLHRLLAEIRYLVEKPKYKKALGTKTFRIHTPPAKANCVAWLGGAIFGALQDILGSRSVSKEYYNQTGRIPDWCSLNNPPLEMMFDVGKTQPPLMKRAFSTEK
UniProt Q03154: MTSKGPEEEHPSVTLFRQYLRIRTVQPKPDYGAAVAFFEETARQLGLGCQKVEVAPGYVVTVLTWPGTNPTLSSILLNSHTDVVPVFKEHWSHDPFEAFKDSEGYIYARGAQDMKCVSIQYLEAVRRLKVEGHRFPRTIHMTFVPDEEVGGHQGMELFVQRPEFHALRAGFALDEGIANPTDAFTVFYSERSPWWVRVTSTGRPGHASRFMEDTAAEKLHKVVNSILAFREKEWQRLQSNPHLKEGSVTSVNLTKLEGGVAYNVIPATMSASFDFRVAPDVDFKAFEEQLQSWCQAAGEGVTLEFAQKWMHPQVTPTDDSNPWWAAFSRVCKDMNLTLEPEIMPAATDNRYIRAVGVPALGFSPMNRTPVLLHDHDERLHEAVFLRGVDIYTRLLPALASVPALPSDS
UniProt Q13444: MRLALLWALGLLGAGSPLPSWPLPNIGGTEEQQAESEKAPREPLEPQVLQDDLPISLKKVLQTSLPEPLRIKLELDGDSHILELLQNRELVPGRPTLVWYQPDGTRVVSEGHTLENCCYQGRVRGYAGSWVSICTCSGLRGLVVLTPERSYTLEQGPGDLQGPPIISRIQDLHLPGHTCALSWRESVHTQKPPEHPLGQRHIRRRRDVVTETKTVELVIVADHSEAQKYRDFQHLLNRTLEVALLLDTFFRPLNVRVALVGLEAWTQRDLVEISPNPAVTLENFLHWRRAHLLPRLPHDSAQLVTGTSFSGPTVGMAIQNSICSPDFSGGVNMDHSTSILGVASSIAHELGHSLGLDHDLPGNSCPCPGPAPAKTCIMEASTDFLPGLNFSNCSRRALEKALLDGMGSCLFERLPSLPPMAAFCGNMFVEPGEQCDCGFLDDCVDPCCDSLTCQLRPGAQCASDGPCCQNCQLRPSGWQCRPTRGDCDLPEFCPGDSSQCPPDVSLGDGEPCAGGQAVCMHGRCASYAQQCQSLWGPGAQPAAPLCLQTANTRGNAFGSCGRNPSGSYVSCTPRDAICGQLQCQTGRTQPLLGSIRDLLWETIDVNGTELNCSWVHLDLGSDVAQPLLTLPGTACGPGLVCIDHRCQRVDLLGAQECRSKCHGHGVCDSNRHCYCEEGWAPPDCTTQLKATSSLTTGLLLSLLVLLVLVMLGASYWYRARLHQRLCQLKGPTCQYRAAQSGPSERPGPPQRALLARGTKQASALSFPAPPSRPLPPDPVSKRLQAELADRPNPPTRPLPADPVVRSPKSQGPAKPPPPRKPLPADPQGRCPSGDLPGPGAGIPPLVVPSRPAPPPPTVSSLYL
UniProt Q16186: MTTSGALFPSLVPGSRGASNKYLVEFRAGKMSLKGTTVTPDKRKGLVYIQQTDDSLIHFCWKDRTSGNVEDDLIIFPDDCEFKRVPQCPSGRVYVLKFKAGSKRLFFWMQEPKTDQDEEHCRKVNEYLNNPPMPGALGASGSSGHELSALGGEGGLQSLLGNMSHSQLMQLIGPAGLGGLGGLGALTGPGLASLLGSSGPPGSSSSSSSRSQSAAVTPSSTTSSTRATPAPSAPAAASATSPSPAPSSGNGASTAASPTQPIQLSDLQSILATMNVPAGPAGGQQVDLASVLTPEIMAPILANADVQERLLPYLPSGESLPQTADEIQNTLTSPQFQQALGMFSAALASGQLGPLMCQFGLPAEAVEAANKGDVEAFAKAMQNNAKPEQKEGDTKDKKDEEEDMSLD
UniProt P30566: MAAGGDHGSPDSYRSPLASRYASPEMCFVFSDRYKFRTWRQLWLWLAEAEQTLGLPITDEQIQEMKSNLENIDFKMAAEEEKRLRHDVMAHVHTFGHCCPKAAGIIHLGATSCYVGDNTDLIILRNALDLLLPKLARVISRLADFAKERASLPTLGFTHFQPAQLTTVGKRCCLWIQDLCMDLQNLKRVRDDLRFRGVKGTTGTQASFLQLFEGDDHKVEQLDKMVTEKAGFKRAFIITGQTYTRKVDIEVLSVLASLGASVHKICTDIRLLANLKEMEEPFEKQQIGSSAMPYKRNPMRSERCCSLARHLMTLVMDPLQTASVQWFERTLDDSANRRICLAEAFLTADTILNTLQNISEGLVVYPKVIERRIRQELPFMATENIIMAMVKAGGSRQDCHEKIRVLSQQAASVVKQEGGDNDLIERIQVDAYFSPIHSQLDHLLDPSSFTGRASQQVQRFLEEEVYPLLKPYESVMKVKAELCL
UniProt P78536: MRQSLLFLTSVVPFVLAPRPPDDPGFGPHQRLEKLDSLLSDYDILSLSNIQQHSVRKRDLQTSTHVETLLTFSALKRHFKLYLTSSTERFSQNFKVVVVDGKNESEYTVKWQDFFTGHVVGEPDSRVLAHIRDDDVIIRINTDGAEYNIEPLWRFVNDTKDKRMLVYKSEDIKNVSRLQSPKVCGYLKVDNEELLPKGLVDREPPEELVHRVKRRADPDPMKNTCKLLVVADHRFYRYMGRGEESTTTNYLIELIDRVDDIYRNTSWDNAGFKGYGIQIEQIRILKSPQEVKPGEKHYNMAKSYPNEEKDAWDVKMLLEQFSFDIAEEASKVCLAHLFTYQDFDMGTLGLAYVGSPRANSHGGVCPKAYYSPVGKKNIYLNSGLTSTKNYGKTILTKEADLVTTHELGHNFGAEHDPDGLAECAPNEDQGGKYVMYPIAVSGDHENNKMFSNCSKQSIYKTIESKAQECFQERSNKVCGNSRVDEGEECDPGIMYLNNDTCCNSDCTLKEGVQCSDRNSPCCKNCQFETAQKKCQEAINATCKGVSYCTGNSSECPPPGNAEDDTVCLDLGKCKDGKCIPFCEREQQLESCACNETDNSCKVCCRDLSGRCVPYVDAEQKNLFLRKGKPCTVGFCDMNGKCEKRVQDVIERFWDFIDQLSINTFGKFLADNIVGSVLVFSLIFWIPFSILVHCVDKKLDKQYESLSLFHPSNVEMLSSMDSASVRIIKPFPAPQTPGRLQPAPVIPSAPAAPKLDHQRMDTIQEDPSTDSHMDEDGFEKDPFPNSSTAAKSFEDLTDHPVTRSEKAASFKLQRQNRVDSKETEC
UniProt Q9NX46: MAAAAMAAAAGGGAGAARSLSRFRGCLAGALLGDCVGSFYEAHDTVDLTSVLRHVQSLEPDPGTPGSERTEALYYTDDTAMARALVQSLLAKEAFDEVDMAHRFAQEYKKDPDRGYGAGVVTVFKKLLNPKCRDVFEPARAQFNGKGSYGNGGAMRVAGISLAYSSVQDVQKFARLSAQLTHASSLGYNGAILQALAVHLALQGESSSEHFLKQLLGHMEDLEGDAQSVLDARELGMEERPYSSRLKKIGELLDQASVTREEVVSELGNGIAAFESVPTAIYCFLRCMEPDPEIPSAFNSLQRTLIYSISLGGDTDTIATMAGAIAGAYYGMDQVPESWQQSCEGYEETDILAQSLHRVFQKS
UniProt Q9NZK5: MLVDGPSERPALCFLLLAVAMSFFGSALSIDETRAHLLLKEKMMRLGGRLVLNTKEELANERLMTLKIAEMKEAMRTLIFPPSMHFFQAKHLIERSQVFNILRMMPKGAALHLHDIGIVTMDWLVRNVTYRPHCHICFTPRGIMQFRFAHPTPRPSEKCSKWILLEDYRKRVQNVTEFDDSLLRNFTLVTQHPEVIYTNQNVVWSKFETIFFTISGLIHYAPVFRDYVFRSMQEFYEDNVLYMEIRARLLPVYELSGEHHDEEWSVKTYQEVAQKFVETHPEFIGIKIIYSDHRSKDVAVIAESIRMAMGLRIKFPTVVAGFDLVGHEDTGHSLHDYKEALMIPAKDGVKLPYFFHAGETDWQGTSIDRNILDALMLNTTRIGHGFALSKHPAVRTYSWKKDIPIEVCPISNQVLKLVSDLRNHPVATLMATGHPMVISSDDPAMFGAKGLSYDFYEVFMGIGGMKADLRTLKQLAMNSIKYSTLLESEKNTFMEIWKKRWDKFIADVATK

The record followed here is the supplement of paper PMC12067093, “Discovery and optimisation of a covalent ligand for TRIM25 and its application to targeted protein ubiquitination” (Chemical Science, 2025).
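Note: competitive profiling in live THP-1 cells: cysteine peptides tagged with an iodoacetamide desthiobiotin (IA-DTB) probe, intensity after compound treatment relative to DMSO-treated cells.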

Compound in the experiment: Cc1cc(ccc1-c1ccccc1)C(=O)N1CCCN(CC1)C(=O)CCl [compound 10]
The experiment can be described thus: probe-labelled cysteine peptide fold change vs DMSO (competition) (log2 fold change); higher = less target engagement (more negative = stronger competition). Conditions: 50 µM; THP-1; incubation time: 4 h.
In the case of “ACTR2_P61160_11_KVVVCDNGTGFVK (UniProt P61160)”, the “probe-labelled cysteine peptide fold change” value is -0.208.
For “ADAM10_O14672_632_TITLQPGSPCNDFR (UniProt O14672)” the value was -0.277; for ADH5_P11766_111_TNLCQK (UniProt P11766), -0.432; for “ADAR_P55265_304_ICDYLFNVSDSSALNLAK (UniProt P55265)”, 0.123.
With “ADSS_P30520_58_VVDLLAQDADIVCR (UniProt P30520)”, the “probe-labelled cysteine peptide fold change” value was -0.246.
For “ADNP_Q9H2P0_79_TKPFCCSACPFSSK (UniProt Q9H2P0)” the value was 0.0646; for “ACSS3_Q9H6R3_602_GHVPLALCVLR (UniProt Q9H6R3)”, -0.0104.
Next, “ADH5_P11766_100_AGDTVIPLYIPQCGECK (UniProt P11766)”: -0.238; “ADK_P55263_140+143_AAEAHVDAHYYEQNEQPTGTCAACITGDNR (UniProt P55263)”: -0.451; “ACTL6A_O96019_152_EKLTELMFEHYNIPAFFLCK (UniProt O96019)”: -0.352.
For “ADA_P00813_262_LRQENMHFEICPWSSYLTGAWKPDTEHAVIR (UniProt P00813)”, the “probe-labelled cysteine peptide fold change” value was -0.181.
For “ACSL3_O95573_450_LLLCGGAPLSATTQR (UniProt O95573)” the value was -0.00742.
For “ADCY3_O60266_479_CDYLEEK (UniProt O60266)” the value was -0.237; for “ACTR10_Q9NZ32_215_TCFVSDLK (UniProt Q9NZ32)”, 0.224.
For “ADGRL2_O95490_807_TMMGYWSTQGCK (UniProt O95490)” the value was -0.103; for “ADH5_P11766_97_AGDTVIPLYIPQCGECK (UniProt P11766)”, -0.147; for “ADAR_P55265_909_GDSLSLKGETVNDCHAEIISR (UniProt P55265)”, -0.846.
For “ACTL6A_O96019_152_LTELMFEHYNIPAFFLCK (UniProt O96019)”, the “probe-labelled cysteine peptide fold change” value came out at 0.112.
For “ACY1_Q03154_116_CVSIQYLEAVRR (UniProt Q03154)” the value was -0.318; for “ADAM15_Q13444_179_IQDLHLPGHTCALSWR (UniProt Q13444)”, -0.321; for “AGFG1_P52594_32_CFDCDQR (UniProt P52594)”, -0.0176.
For “AFF1_P51825_355_MPSQSVEQTYSNEVHCVEEILK (UniProt P51825)” the value was -0.257; for “ACSL1_P33121_274_RKPKPPAPEDLAVICFTSGTTGNPK (UniProt P33121)”, -0.191.
For “ADRM1_Q16186_121_TDQDEEHCR (UniProt Q16186)” the value was 0.172; for “ADSL_P30566_99_LRHDVMAHVHTFGHCCPK (UniProt P30566)”, -0.31; for “ADAR_P55265_851_CFNTLTNSFQPSLLGR (UniProt P55265)”, 0.166.
“ADAR_P55265_125_GVDCLSSHFQELSIYQDQEQR (UniProt P55265)”: the “probe-labelled cysteine peptide fold change” value was -0.162.
Next, “AGL_P35573_399_LINYHQEQAVNCLLGNVFYER (UniProt P35573)”: -0.125; “ACP2_P11117_349_CPLQDFLR (UniProt P11117)”: -0.0485; “ADAM17_P78536_630_KGKPCTVGFCDMNGK (UniProt P78536)”: -0.565.
Next, “AGK_Q53H12_72_ATVFLNPAACK (UniProt Q53H12)”: 0.3; “ADAR_P55265_392_RNAEFLTCNIPTSNASNNMVTTEK (UniProt P55265)”: -0.443; “ACOX3_O15254_426_EACGGHGYLAMNR (UniProt O15254)”: -0.173.
Next, “ADPRHL2_Q9NX46_132_CRDVFEPAR (UniProt Q9NX46)”: 0.0456.
Take “ADA2_Q9NZK5_408_DIPIEVCPISNQVLK (UniProt Q9NZK5)”: the “probe-labelled cysteine peptide fold change” value is -0.195.
For “ADAR_P55265_519_NPISGLLEYAQFASQTCEFNMIEQSGPPHEPR (UniProt P55265)” the value was 0.178.
